# For at least one compound, name, drawing or mass did not settle the structure.
# Key:
# [1] = tested on: B. malayi microfilariae; test: B. malayi microfilariae incubation with UGT inhibitors (microfilaricidal activity in vitro); assay type: cell-based, Brugia malayi; conditions: 200 μM
# Description: B. malayi microfilariae incubation with UGT inhibitors: The above UGT inhibitors were evaluated for microfilaricidal activity in vitro. For each drug, experiments were performed in triplicate at a concentration of 2×10^4 Mf/mL in culture media. Viability was determined by quantifying the number of motile larvae from 100 randomly selected microfilariae per well. […] As a negative control, larvae were incubated in culture media alone. The UGT inhibitor experiments were repeated two times under similar conditions.
# [2] = tested on: adult B. malayi female worms; test: Adult female B. malayi incubation with UGT inhibitor in combination with albendazole, worm motility; assay type: cell-based, Brugia malayi; conditions: 40 μM alone, 8 days
# Description: Worm motility: Worms were visualized with a dissecting microscope by an observer blinded to treatment category. Motility of the adult female B. malayi worms was rated based on the following scale: 4=active movement, 3=modest reduction in movement, 2=severe reduction in movement, 1=twitching, and 0=no movement.
# For the probenecid samples, adult female worms were incubated in culture media with the drug for 8 days at concentration of 100 μM alone or in combination with 10 μM of albendazole. Worms were transferred into new media with corresponding drug concentrations every other day. As a negative control, worms were incubated in culture media alone. Worm motility was scored using a previously established scale as described in Example 3 for the course of the experiment.
compound,measurement,setting,value
O=C1C(CC[S+]([O-])c2ccccc2)C(=O)N(c2ccccc2)N1c1ccccc1 (centres unmarked) [sulfinpyrazone],Microfilaricidal effect,[1],very little
same,Macrofilaricidal activity compared to media alone,[2],Limited macrofilaricidal activity
